Consider one compound from ChEMBL document CHEMBL3046649, “Fungitoxic and Phytotoxic Activities of Cinnamic Acid Esters and Amides” (2000).

Type in all cases: functional
The test system of experiment [1] is Brassica rapa subsp. chinensis. The experiment in a line: whole plant or invertebrate. The conditions noted are these: 72 h, read-out: GI.
In experiment [2] the test system is Brassica rapa subsp. chinensis. In words: whole plant or invertebrate. The note with it: 72 h, read-out: GI. The source holds these as a separate data set.
A further experiment concerns Pythium. The experiment in a line: microbe, parasite or virus in culture. The note with it: read-out: GI.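 Further: agar dilution test on Pythium sp., inhibition of mycelial growth scored after 4–5 days of incubation.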
The test system of a further experiment is Athelia rolfsii. The experiment in a line: microbe, parasite or virus in culture. The note with it: Agroathelia rolfsii, read-out: GI.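 Further: mycelial growth inhibition of the fungus, determined with an agar dilution method and read 4–5 days after treatment.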

In the case of `O=C(/C=C/c1ccccc1)Nc1ccccc1O` [N-(2-HYDROXYPHENYL)CINNAMAMIDE], the inhibition of growth at 100 ppm in experiment [1] was found to be 0%; in experiment [2], 0%; with Pythium, 24%; in the experiment with Athelia rolfsii, 12%.
